The values that follow come from PMC5399287.

Amino acid sequences for entries named in this document (tags omitted). A change or cut given only in a name is not applied to a line headed by its entry. Residues count along the entry.
UniProt P28301: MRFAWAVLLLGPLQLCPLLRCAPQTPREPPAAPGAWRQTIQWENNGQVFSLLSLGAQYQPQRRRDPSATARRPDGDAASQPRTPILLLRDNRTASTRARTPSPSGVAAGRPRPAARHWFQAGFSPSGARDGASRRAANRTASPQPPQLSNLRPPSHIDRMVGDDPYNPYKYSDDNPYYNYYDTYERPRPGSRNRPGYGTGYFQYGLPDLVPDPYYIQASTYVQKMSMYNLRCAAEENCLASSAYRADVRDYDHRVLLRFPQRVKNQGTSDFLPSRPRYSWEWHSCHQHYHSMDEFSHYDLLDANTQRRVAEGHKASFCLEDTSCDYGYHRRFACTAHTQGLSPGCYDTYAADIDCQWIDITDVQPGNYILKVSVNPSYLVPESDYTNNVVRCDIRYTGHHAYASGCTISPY
UniProt Q92743, residues 23-480: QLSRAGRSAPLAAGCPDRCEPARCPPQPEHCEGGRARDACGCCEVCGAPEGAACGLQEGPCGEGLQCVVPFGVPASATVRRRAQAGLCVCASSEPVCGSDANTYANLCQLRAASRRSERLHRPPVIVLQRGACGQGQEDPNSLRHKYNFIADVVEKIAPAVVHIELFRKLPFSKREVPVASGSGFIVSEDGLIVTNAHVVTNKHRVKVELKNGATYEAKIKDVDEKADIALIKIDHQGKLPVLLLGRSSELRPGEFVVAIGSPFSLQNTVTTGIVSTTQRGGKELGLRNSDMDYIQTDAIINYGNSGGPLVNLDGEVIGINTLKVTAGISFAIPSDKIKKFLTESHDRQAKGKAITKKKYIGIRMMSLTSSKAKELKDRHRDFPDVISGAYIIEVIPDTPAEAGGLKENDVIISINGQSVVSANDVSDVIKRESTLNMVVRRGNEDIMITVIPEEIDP

Where two headings read alike, the source gives them in different places. No constants are given. Whether binding was seen depends on the method and setting. Binding seen in cells or lysates may run through a third protein. For some of these results: Binding can be weak; no strength is given.

Experiment in all cases: co-IP; GFP fusion proteins precipitated with GFP-Trap agarose beads from culture medium of stably expressing MDA-MB-231 cells; co-precipitated MATN2 or HTRA1 by western blot
In experiment [1] the target is LOX^K314A-GFP (catalytically inactive mutant of LOX fused to GFP) (mouse) (UniProt P28301).
The target of experiment [2] is LOX-GFP (wild-type lysyl oxidase fused to GFP) (mouse) (UniProt P28301).
Experiment [3] addresses LOX^K314A-GFP (catalytically inactive mutant of LOX fused to GFP) (mouse) (UniProt P28301). This is another data set of the same source.
Experiment [4] has as its target LOX-GFP (wild-type lysyl oxidase fused to GFP) (mouse) (UniProt P28301). This is another data set of the same source.

For “HTRA1 (high-temperature requirement A serine peptidase 1) (from UniProt Q92743 23-480) (enzyme)”, the binding result in experiment [1] was “no binding”; in experiment [2], “binds”.

B1: Matrilin2 (MATN2) (protein, UniProt O00339 24-956)
chain: RERSRGRSISRGRHARTHPQTALLESSCENKRADLVFIIDSSRSVNTHDYAKVKEFIVDILQFLDIGPDVTRVGLLQYGSTVKNEFSLKTFKRKSEVERAVKRMRHLSTGTMTGLAIQYALNIAFSEAEGARPLRENVPRVIMIVTDGRPQDSVAEVAAKARDTGILIFAIGVGQVDFNTLKSIGSEPHEDHVFLVANFSQIETLTSVFQKKLCTAHMCSTLEHNCAHFCINIPGSYVCRCKQGYILNSDQTTCRIQDLCAMEDHNCEQLCVNVPGSFVCQCYSGYALAEDGKRCVAVDYCASENHGCEHECVNADGSYLCQCHEGFALNPDKKTCTKIDYCASSNHGCQHECVNTDDSYSCHCLKGFTLNPDKKTCRRINYCALNKPGCEHECVNMEESYYCRCHRGYTLDPNGKTCSRVDHCAQQDHGCEQLCLNTEDSFVCQCSEGFLINEDLKTCSRVDYCLLSDHGCEYSCVNMDRSFACQCPEGHVLRSDGKTCAKLDSCALGDHGCEHSCVSSEDSFVCQCFEGYILREDGKTCRRKDVCQAIDHGCEHICVNSDDSYTCECLEGFRLAEDGKRCRRKDVCKSTHHGCEHICVNNGNSYICKCSEGFVLAEDGRRCKKCTEGPIDLVFVIDGSKSLGEENFEVVKQFVTGIIDSLTISPKAARVGLLQYSTQVHTEFTLRNFNSAKDMKKAVAHMKYMGKGSMTGLALKHMFERSFTQGEGARPLSTRVPRAAIVFTDGRAQDDVSEWASKAKANGITMYAVGVGKAIEEELQEIASEPTNKHLFYAEDFSTMDEISEKLKKGICEALEDSDGRQDSPAGELPKTVQQPTESEPVTINIQDLLSCSNFAVQHRYLFEEDNLLRSTQKLSHSTKPSGSPLEEKHDQCKCENLIMFQNLANEEVRKLTQRLEEMTQRMEALENRLRYR
In the case of B1, the binding result in experiment [3] and in experiment [4] was “binds” in each case.
